The supplement of paper PMC10849652
Some of the results follow.

By UniProt entry, the sequences of proteins in these tests, tags left out. Where a name states a change or a piece, a line headed by the entry shows the natural chain unless it says otherwise.
UniProt O14974: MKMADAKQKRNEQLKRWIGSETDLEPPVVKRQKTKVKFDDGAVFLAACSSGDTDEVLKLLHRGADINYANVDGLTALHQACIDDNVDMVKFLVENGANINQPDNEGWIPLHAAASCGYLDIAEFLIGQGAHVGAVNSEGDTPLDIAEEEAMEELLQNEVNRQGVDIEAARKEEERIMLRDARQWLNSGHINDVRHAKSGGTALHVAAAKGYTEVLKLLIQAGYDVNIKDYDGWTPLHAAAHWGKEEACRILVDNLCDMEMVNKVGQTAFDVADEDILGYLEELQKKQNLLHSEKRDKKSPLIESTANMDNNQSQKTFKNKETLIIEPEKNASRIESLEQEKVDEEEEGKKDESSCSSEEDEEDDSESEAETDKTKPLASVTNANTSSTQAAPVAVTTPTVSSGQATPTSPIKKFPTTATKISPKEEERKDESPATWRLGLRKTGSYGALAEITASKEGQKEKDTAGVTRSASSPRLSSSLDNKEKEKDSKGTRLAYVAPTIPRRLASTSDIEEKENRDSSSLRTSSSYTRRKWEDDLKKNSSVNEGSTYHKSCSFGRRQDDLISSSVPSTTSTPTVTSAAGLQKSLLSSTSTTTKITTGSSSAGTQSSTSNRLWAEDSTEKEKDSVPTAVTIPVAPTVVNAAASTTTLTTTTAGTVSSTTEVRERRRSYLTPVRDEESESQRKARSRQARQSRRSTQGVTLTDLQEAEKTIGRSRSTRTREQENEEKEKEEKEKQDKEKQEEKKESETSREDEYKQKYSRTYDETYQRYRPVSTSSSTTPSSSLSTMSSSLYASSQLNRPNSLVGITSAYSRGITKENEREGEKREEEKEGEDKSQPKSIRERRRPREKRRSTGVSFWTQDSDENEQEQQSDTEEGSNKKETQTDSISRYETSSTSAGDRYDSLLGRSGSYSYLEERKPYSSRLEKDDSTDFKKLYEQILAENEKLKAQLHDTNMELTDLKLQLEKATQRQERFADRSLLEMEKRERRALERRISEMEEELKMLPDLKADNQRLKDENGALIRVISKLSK
UniProt P14314: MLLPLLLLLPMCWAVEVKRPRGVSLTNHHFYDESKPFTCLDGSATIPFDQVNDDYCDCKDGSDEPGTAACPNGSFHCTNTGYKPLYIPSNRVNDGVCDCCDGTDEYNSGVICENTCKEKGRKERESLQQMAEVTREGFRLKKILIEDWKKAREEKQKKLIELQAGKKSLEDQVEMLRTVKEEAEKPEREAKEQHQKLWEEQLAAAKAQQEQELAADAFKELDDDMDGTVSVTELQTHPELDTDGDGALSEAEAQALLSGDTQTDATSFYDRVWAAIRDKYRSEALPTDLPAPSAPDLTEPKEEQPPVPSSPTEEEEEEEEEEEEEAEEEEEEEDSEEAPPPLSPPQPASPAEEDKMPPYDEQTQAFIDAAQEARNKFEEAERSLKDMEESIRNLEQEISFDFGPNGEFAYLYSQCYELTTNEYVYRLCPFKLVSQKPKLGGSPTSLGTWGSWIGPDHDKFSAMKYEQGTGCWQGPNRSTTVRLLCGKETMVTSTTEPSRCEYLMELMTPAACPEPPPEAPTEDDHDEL
UniProt O60828: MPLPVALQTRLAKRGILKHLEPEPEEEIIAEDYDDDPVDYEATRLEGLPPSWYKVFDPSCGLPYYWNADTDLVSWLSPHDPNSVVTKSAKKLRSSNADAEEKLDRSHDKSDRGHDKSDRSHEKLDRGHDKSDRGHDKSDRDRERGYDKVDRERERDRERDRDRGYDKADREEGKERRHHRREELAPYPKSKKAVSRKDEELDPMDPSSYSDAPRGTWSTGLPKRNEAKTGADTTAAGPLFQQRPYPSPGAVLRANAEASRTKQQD
UniProt Q8WY54: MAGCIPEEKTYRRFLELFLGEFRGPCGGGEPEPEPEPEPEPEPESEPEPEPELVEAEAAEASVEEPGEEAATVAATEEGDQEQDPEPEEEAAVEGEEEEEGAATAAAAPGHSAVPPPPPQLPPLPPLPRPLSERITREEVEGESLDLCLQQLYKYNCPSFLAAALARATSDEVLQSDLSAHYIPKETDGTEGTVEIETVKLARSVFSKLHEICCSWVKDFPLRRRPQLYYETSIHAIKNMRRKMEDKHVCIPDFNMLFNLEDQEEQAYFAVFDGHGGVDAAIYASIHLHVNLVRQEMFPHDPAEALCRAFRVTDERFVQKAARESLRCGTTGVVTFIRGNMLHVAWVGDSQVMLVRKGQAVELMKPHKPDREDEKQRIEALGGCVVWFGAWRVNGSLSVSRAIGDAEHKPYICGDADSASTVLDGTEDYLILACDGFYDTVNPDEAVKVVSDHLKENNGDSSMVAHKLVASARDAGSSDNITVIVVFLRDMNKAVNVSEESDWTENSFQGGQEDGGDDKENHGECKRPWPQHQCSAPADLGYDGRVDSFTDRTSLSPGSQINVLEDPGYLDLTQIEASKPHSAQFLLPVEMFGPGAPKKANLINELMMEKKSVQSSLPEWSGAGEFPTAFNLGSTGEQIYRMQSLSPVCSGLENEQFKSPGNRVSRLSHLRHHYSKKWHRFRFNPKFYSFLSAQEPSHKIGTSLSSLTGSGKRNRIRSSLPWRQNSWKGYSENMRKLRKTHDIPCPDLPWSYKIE
UniProt Q8TAP8: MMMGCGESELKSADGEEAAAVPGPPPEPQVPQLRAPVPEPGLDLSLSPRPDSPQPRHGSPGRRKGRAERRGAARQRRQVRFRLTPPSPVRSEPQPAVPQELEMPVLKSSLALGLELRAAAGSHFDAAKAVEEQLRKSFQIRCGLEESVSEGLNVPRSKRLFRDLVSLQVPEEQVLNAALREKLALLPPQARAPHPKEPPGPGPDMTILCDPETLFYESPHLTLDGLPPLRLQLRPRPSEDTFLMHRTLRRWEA
UniProt K7ELL7: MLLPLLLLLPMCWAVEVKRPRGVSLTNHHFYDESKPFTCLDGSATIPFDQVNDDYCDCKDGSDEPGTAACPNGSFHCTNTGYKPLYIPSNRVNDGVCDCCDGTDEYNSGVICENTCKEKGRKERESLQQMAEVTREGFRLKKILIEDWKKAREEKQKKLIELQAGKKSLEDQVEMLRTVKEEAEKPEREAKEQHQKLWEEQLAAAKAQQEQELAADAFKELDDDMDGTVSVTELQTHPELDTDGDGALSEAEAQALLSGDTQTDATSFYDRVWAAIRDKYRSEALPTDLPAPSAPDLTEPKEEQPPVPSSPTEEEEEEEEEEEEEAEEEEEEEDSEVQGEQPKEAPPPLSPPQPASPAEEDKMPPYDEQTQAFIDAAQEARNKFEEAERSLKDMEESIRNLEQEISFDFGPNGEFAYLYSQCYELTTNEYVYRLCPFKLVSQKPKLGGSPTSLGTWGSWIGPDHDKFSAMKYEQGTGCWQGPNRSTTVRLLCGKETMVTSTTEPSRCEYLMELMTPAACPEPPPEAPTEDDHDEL
UniProt P54619: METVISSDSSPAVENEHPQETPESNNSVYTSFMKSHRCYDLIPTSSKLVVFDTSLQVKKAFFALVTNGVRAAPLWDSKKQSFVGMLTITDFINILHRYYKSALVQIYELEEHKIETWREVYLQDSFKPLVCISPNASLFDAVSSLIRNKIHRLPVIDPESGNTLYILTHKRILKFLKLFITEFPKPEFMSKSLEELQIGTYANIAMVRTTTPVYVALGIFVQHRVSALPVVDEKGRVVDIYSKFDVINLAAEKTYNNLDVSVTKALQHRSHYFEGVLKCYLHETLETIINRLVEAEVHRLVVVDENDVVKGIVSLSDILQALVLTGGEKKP
UniProt Q9Y570: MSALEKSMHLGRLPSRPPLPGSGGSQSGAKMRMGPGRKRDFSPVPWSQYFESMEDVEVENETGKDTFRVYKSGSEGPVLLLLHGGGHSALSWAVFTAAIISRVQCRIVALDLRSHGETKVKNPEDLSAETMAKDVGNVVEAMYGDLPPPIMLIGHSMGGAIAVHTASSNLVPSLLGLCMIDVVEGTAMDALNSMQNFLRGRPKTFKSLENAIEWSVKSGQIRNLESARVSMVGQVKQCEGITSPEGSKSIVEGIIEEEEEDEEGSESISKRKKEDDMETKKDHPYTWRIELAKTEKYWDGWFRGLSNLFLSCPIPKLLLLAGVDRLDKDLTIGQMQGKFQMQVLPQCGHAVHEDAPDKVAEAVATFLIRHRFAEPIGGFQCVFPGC
UniProt Q96A00: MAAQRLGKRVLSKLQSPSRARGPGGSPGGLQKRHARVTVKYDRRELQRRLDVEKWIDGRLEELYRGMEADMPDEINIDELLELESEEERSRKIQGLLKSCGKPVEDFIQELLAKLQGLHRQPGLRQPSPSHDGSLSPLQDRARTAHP
UniProt Q15435: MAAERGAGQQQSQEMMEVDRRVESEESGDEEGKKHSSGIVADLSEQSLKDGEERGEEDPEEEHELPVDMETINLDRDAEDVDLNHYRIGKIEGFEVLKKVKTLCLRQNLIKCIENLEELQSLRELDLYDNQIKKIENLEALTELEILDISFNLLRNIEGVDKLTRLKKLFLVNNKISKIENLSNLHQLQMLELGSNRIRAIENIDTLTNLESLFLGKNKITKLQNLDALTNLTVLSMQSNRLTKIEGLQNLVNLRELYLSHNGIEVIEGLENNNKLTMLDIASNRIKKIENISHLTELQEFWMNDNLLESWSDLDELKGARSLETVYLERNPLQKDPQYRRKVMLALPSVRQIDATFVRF
UniProt O43172: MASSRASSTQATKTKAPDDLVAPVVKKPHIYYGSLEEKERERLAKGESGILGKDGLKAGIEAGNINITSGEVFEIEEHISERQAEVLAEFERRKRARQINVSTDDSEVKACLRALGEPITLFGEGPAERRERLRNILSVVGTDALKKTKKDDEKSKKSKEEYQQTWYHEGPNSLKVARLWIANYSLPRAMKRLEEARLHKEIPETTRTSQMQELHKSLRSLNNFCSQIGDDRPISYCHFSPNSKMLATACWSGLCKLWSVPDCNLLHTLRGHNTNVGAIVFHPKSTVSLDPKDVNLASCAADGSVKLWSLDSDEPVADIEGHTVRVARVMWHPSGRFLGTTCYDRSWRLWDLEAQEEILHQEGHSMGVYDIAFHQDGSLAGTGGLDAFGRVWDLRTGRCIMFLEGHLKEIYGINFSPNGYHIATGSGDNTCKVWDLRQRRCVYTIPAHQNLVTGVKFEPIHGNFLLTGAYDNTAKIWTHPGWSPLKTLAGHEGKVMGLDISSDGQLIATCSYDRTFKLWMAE
UniProt P60510: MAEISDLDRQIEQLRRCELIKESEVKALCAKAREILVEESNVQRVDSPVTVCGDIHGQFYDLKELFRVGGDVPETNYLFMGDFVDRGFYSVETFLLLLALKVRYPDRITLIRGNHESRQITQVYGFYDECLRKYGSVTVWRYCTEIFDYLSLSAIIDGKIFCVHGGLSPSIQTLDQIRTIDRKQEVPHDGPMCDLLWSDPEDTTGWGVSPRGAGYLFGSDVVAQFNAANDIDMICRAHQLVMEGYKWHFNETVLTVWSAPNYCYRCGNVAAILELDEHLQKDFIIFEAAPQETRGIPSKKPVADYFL
UniProt Q86UA1: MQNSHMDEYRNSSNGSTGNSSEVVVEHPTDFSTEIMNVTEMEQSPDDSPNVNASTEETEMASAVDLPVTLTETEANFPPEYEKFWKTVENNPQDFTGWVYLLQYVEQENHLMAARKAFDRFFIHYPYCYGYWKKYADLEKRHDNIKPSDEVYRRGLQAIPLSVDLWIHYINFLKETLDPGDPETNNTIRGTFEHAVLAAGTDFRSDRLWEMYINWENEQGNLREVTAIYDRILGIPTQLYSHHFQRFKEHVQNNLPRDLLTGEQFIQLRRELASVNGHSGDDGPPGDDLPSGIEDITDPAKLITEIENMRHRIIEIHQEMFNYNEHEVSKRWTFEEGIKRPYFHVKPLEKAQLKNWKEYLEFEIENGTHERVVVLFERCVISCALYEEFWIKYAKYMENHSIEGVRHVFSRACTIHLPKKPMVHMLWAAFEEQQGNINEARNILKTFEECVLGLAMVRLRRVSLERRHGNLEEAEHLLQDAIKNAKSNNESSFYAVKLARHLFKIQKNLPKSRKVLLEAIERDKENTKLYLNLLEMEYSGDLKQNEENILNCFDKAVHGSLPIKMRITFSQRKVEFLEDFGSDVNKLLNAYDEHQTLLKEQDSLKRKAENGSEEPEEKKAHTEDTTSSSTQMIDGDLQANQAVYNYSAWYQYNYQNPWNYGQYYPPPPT
UniProt O43741: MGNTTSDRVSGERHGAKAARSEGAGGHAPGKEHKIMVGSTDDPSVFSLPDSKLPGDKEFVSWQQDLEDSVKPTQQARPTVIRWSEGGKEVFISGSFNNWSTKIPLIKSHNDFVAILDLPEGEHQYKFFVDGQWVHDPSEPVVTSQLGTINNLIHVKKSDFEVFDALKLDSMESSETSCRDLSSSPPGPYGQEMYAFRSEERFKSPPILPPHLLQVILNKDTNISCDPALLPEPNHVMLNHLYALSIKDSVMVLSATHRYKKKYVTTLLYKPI

Tests used:
Experiment in all cases: log2 fold change, soluble protein after heating vs DMSO (PISA); higher = thermal stabilisation; K562 lysate, 10 uM; active = over 0.2 and 3.5 SD of the protein, either way, in both replicates (recomputed)
[1] = compound: CS(=O)(=O)CCNCc1ccc(-c2ccc3ncnc(Nc4ccc(OCc5cccc(F)c5)c(Cl)c4)c3c2)o1 [lapatinib]
Method in brief: (§1)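 Log-two fold change in thermal stability relative to solvent controls is reported from duplicates. For each sample, crude K562 extract from dounce-homogenised pellets in PBS pH 7.4 with 1 mM MgCl2, at 1 mg/mL protein, was treated with 10 μM compound for 30 min. Aliquots heated for 3 min across 48°C-58°C were pooled, brought to 0.5% NP-40 at 4°C and cleared at 21,000xg for 90 min. The supernatant was quantified by TMTpro 16plex LC-MS/MS with channel sums equalised.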

[2] = compound: CS(=O)(=O)N1CCN(Cc2cc3nc(-c4cccc5[nH]ncc45)nc(N4CCOCC4)c3s2)CC1 [pictilisib]
Method in brief: as §1

[3] = compound: C[C@@H](Oc1cc(-c2cnn(C3CCNCC3)c2)cnc1N)c1c(Cl)ccc(F)c1Cl [crizotinib]
Method in brief: as §1

[4] = compound: C[C@H](C1=CC=C(C=C1)C(=O)NC2=C3C=CNC3=NC=C2)N
Method in brief: as §1

[5] = compound: C[C@H](Nc1ncnc2nc[nH]c12)c1cc2cccc(Cl)c2c(=O)n1-c1ccccc1 [duvelisib]
Method in brief: as §1

[6] = compound: Cc1cc(Nc2cc(CN3CCOCC3)c3nc(C)c(Cc4ccc(Cl)cc4F)n3n2)n[nH]1 [gandotinib]
Method in brief: as §1

[7] = compound: Cc1cc(Nc2cc(N3CCN(C)CC3)nc(Sc3ccc(NC(=O)C4CC4)cc3)n2)n[nH]1 [tozasertib]
Method in brief: as §1

[8] = compound: Cc1ccc(-n2nc(C(C)(C)C)cc2NC(=O)Nc2ccc(OCCN3CCOCC3)c3ccccc23)cc1 [doramapimod]
Method in brief: as §1

[9] = compound: Cc1ccc(NC(=O)c2ccc(CN3CC[C@H](N(C)C)C3)c(C(F)(F)F)c2)cc1Nc1nccc(-c2cncnc2)n1 [bafetinib]
Method in brief: as §1

[10] = compound: Cc1cccc(CC(=O)N2CCc3c2ccc(-c2cn(C)c4ncnc(N)c24)c3F)n1
Method in brief: as §1

[11] = compound: Cc1cn(-c2cc(NC(=O)c3ccc(C)c(Nc4nccc(-c5cccnc5)n4)c3)cc(C(F)(F)F)c2)cn1 [nilotinib]
Method in brief: as §1

[12] = compound: Cc1nc(Nc2n[nH]c3c2CN(C(=O)N[C@H](CN(C)C)c2ccccc2)C3(C)C)c2sccc2n1
Method in brief: as §1

[13] = compound: Cc1nc(Nc2ncc(C(=O)Nc3c(C)cccc3Cl)s2)cc(N2CCN(CCO)CC2)n1 [dasatinib]
Method in brief: as §1

[14] = compound: Cc1ncc(-c2ccnc(Nc3ccc(S(C)(=O)=O)cc3)n2)n1C(C)C
Method in brief: as §1

[15] = compound: Cn1cc(-c2ccc3c(c2)CCN3C(=O)Cc2cccc(C(F)(F)F)c2)c2c(N)ncnc21
Method in brief: as §1

[16] = compound: Cn1cc(CNCC2CCN(c3ncc(C(=O)NO)cn3)CC2)c2ccccc21 [quisinostat]
Method in brief: as §1

[17] = compound: Cn1cncc1[C@@](N)(c1ccc(Cl)cc1)c1ccc2c(c1)c(-c1cccc(Cl)c1)cc(=O)n2C [tipifarnib]
Method in brief: as §1

[18] = compound: NC(=O)Nc1cc(-c2cccc(F)c2)sc1C(=O)N[C@H]1CCCNC1
Method in brief: as §1

[19] = compound: NC(=O)c1cnc(N[C@@H]2CCCC[C@@H]2N)nc1Nc1cccc(-n2nccn2)c1
Method in brief: as §1

[20] = compound: NC1(c2ccc(-c3nc4ccn5c(=O)[nH]nc5c4cc3-c3ccccc3)cc2)CCC1
Method in brief: as §1

Measured: log2 fold change

PPP2R5E (UniProt Q16537)
inactive: [1] -0.015 | [2] 0.062 | [3] -0.068 | [4] 0 | [5] 0.014 | [6] -0.047 | [7] -0.026 | [8] -0.061 | [9] -0.08 | [10] 0.008 | [11] -0.002 | [12] 0 | [13] -0.015 | [14] 0.038 | [15] 0.028 | [16] 0.036 | [17] -0.003 | [18] 0.002 | [19] 0.021 | [20] -0.022

PPP1R12A (UniProt O14974)
inactive: [1] 0.002 | [2] 0.007 | [3] -0.014 | [4] -0.038 | [5] 0.001 | [6] 0.009 | [7] 0.002 | [8] 0.012 | [9] -0.038 | [10] 0.037 | [11] -0.011 | [12] 0.012 | [13] -0.007 | [14] -0.024 | [15] 0.005 | [16] -0.043 | [17] 0.019 | [18] -0.006 | [19] 0.005 | [20] -0.004

PRKCSH (UniProt P14314)
inactive: [1] -0.004 | [2] -0.004 | [3] 0.062 | [4] 0.046 | [5] 0.022 | [6] -0.023 | [7] 0.02 | [8] -0.042 | [9] 0.05 | [10] -0.088 | [11] 0.01 | [12] 0.016 | [13] 0.037 | [14] 0.041 | [15] -0.003 | [16] 0.088 | [17] 0.008 | [18] -0.006 | [19] -0.004 | [20] 0.036

PQBP1 (UniProt O60828)
inactive: [1] 0.023 | [2] 0.036 | [3] 0.03 | [4] -0.023 | [5] 0.012 | [6] 0.101 | [7] -0.018 | [8] 0.013 | [9] -0.02 | [10] 0.012 | [11] 0.017 | [12] -0.012 | [13] 0.051 | [14] 0.007 | [15] 0.015 | [16] -0.011 | [17] -0.02 | [18] -0.046 | [19] -0.04 | [20] 0.013

PPM1E (UniProt Q8WY54)
inactive: [1] 0.002 | [2] -0.065 | [3] 0.043 | [4] -0.057 | [5] 0.023 | [6] 0.05 | [7] -0.018 | [8] 0.053 | [9] 0.023 | [10] 0.052 | [11] 0.028 | [12] -0.059 | [13] 0.074 | [14] 0.139 | [15] 0.043 | [16] -0.019 | [17] 0.017 | [18] -0.03 | [19] -0.045 | [20] 0.045

PPP1R35 (UniProt Q8TAP8)
inactive: [1] 0.084 | [2] 0.004 | [3] 0.128 | [4] -0.019 | [5] 0.142 | [6] 0.058 | [7] -0.038 | [8] -0.014 | [9] -0.046 | [10] 0.074 | [11] 0.057 | [12] -0.104 | [13] 0.042 | [14] 0.042 | [15] 0.081 | [16] 0.084 | [17] -0.076 | [18] 0.047 | [19] 0.019 | [20] 0.206

PRKCSH (UniProt K7ELL7)
inactive: [1] -0.009 | [2] 0.028 | [3] 0.061 | [4] 0.181 | [5] 0.1 | [6] -0.047 | [7] 0.062 | [8] -0.044 | [9] 0.031 | [10] -0.019 | [11] -0.013 | [12] -0.163 | [13] 0.014 | [14] 0.125 | [15] -0.015 | [16] 0.04 | [17] 0.024 | [18] 0.024 | [19] -0.032 | [20] -0.031

PRKAG1 (UniProt P54619)
inactive: [1] -0.03 | [2] 0.07 | [3] -0.043 | [4] -0.033 | [5] -0.003 | [6] 0.136 | [7] 0.109 | [8] 0.012 | [9] -0.071 | [10] -0.018 | [11] -0.055 | [12] 0.124 | [13] -0.004 | [14] 0.022 | [15] 0.005 | [16] -0.088 | [17] -0.069 | [18] 0.152 | [19] 0.061 | [20] 0.033

PPME1 isoform 4 (UniProt Q9Y570)
inactive: [1] -0.014 | [2] 0.009 | [3] 0.005 | [4] -0.014 | [5] 0.002 | [6] -0.002 | [7] 0.048 | [8] 0.026 | [9] 0.052 | [10] -0.006 | [11] 0.01 | [12] -0.053 | [13] -0.008 | [14] -0.025 | [15] -0.003 | [16] 0.018 | [17] 0.01 | [18] -0.03 | [19] -0.016 | [20] 0.041

2 entries drawn at random from the list so far:
PPM1E (UniProt Q8WY54)
inactive: [1] 0.002 | [2] -0.065 | [3] 0.043 | [4] -0.057 | [5] 0.023 | [6] 0.05 | [7] -0.018 | [8] 0.053 | [9] 0.023 | [10] 0.052 | [11] 0.028 | [12] -0.059 | [13] 0.074 | [14] 0.139 | [15] 0.043 | [16] -0.019 | [17] 0.017 | [18] -0.03 | [19] -0.045 | [20] 0.045

PRKAG1 (UniProt P54619)
inactive: [1] -0.03 | [2] 0.07 | [3] -0.043 | [4] -0.033 | [5] -0.003 | [6] 0.136 | [7] 0.109 | [8] 0.012 | [9] -0.071 | [10] -0.018 | [11] -0.055 | [12] 0.124 | [13] -0.004 | [14] 0.022 | [15] 0.005 | [16] -0.088 | [17] -0.069 | [18] 0.152 | [19] 0.061 | [20] 0.033

(next part)

PPP1R14A (UniProt Q96A00)
inactive: [1] -0.016 | [2] -0.008 | [3] 0.015 | [4] -0.078 | [5] -0.005 | [6] 0.069 | [7] 0.021 | [8] 0.013 | [9] -0.018 | [10] 0.03 | [11] -0.06 | [12] -0.003 | [13] -0.029 | [14] 0.037 | [15] -0.001 | [16] -0.017 | [17] 0.035 | [18] -0.031 | [19] -0.017 | [20] 0.013

PPP1R7 (UniProt Q15435)
inactive: [1] -0.005 | [2] 0.036 | [3] 0.002 | [4] -0.007 | [5] 0.021 | [6] -0.022 | [7] 0.075 | [8] 0.02 | [9] -0.021 | [10] -0.02 | [11] -0.004 | [12] 0.008 | [13] -0.023 | [14] -0.028 | [15] 0.033 | [16] -0.025 | [17] 0.016 | [18] -0.023 | [19] -0.004 | [20] 0.021

PRPF4 (UniProt O43172)
inactive: [1] 0.014 | [2] 0.005 | [3] -0.013 | [4] 0.184 | [5] -0.046 | [6] -0.041 | [7] -0.005 | [8] 0.029 | [9] -0.017 | [10] -0.114 | [11] 0.024 | [12] -0.018 | [13] -0.008 | [14] 0.003 | [15] -0.001 | [16] 0.016 | [17] 0.023 | [18] -0.015 | [19] 0.004 | [20] 0.001

PPP4C (UniProt P60510)
inactive: [1] -0.024 | [2] -0.026 | [3] -0.016 | [4] 0.076 | [5] -0.03 | [6] -0.056 | [7] 0.017 | [8] 0.045 | [9] -0.071 | [10] -0.046 | [11] 0.016 | [12] -0.045 | [13] 0.059 | [14] 0.028 | [15] 0.022 | [16] -0.046 | [17] 0.006 | [18] -0.029 | [19] -0.022 | [20] -0.01

PPP4R1 (UniProt Q8TF05)
inactive: [1] -0.007 | [2] -0.001 | [3] -0.037 | [4] 0.001 | [5] 0.015 | [6] -0.008 | [7] -0.005 | [8] 0.014 | [9] -0.034 | [10] 0.036 | [11] -0.015 | [12] -0.005 | [13] -0.041 | [14] -0.021 | [15] -0.017 | [16] -0.018 | [17] 0.012 | [18] 0.032 | [19] 0.009 | [20] 0.001

PRPF39 (UniProt Q86UA1)
inactive: [1] -0.025 | [2] -0.061 | [3] -0.015 | [4] -0.073 | [5] -0.035 | [6] -0.05 | [7] 0.015 | [8] 0.047 | [9] -0.093 | [10] 0.105 | [11] -0.031 | [12] -0.008 | [13] -0.023 | [14] 0.011 | [15] 0.007 | [16] -0.01 | [17] 0.001 | [18] 0.06 | [19] 0.005 | [20] -0.056

PRKAB2 (UniProt O43741)
inactive: [1] -0.029 | [2] 0.09 | [3] -0.013 | [5] 0.019 | [6] 0.25 | [7] 0.111 | [8] 0.039 | [9] 0.052 | [10] 0.142 | [11] 0.033 | [12] 0.203 | [13] -0.049 | [14] 0.106 | [15] 0.042 | [16] -0.031 | [17] -0.031 | [18] 0.14 | [19] 0.036 | [20] 0.023
active: [4] -0.698
